Test results from patent US20210353564A1, “TREATMENTS FOR ZIKA VIRUS INFECTION” (Saint Louis University, priority 2018, published 2021).
At least one compound was matched to its structure with a doubt left.

System: Zika virus
Assay: Focus Forming Assay, Vero cells drugged at T-1, T0, T1, T8, T12 relative to addition of virus
Type: cell-based
Settings: addition T-1 to T12 relative to virus
Experimental: FIGS. 3-14. Focus Forming Assay. Data represent Vero cells drugged with SERM compounds an hour before addition of virus (T-1), upon addition of virus (T0), one hour after addition of virus (T1), eight hours after addition of virus (T8), and twelve hours after addition of virus. Each compound was screened as triplicate measurements and performed in duplicate. The data is shown as focus count (normalized to the control wells) which represents the amount of remaining virus after 39 hours as a function of log concentration.

Compound: CC/C(=C(\c1ccc(O)cc1)c1ccc(OCCN(C)C)cc1)c1ccccc1 [TAM-OH, 4-hydroxytamoxifen]
- change of EC50 with time of compound addition: EC50 increases from T1 to T8
